Measured values taken from PubChem BioAssay AID2685 (National Center for Advancing Translational Sciences (NCATS), 2010).
The list shows a part of the results. Shown are side measurements of this screen, not its main read-out; they come without a call. The list favours compounds with an active or inconclusive main result. Potencies come from curve fits of mixed quality, noted in brackets.

Assay: qHTS Assay for Lipid Storage Modulators in Drosophila S3 Cells;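 on cell number change: cells counted by Cell Tracker Red CMTPX staining in the red channel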
Settings: BODIPY lipid droplet fluorescence, 18-24 h; for cell number change: measured here: cell count max response, cells fed with added oleic acid
In short: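 Drosophila S3 cells loaded with oleic acid (400 uM, as added) and compounds at several concentrations; lipid droplets imaged by 488-nm laser-scanning cytometry, 500–530 nm intensity and object ratio to cell channel. Percent activity normalized to 20 uM Triacsin C.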

[1] = measured here: cell number channel AC50, cells fed with added oleic acid
[2] = measured here: lipid fluorescence (Fed channel) AC50, cells fed with added oleic acid

SMILES | cell number change | AC50 [1] | AC50 [2]
CS(=O)(=O)/C(C#N)=C\c1cnc(S(=O)(=O)c2ccccc2)s1 | -72.1% | 5.8 µM [falling, full curve] | 5.17 µM [falling, full curve]
CCCCNC(=O)CSc1nc2ccc(Nc3nc(N4CCOCC4)nc(N4CCOCC4)n3)cc2s1 | 5.48% | – | 0.231 µM [rising, full curve, poor fit]
Cc1cc(C)c(C)c(S(=O)(=O)NC(C)C(=O)O)c1C (configuration not stated) | -24.1% | – | 25.9 µM [falling, single point]
NC(=O)COC(=O)c1c2c(nc3ccccc13)CCCCC2 | – | 0.00517 µM [rising, full curve, poor fit] | 0.146 µM [rising, partial curve, poor fit]
Cc1c(C)c2ccc(OCC(=O)N[C@@H](Cc3ccccc3)C(=O)O)cc2oc1=O | 33.8% | 29.1 µM [rising, single point] | 29.1 µM [rising, single point]
C=CCNC(=S)NNC(=O)COc1ccc2cc(Br)ccc2c1 | -22.2% | – | 0.146 µM [falling, partial curve]
O=C(Nc1cccc(C(F)(F)F)c1)Oc1ccc(Cl)c2cccnc12 | – | – | 4.11 µM [falling, full curve]
Cc1ccccc1C(=O)OC(C)C(=O)NCc1ccc2c(c1)OCO2 (configuration not stated) | -1.93% | – | 5.17 µM [rising, partial curve, poor fit]
CC(NC(=O)/C(C#N)=C/c1ccc(N2CCOCC2)cc1)c1ccccc1 (configuration not stated) | -19.8% | – | 0.58 µM [rising, single point]
O=c1[nH]c(SCc2ccccc2Cl)nc2c1CCC2 | -163% | 23.1 µM [falling, partial curve] | 0.116 µM [falling, full curve, poor fit]
Cn1ncc2c(NNC(=O)Cc3cccc4ccccc34)ncnc21 | -14.7% | – | 4.11 µM [falling, full curve, poor fit]
CC(=O)NC(CC(=O)NCCCn1ccc2ccccc21)c1ccccc1 (configuration not stated) | 8.57% | 0.326 µM [rising, partial curve, poor fit] | –
O=C(COC(=O)/C=C/c1cccs1)NC1CC1 | 14% | – | –
O=C(Nc1c(C(=O)N2CCOCC2)cnn1-c1ccccc1)c1ccccc1F | 6.58% | – | –
Cc1ccc(/C=N/NC(=O)c2nnn(-c3nonc3N)c2CN(C)C2CCCCC2)cc1 | 2.67% | – | 29.1 µM [falling, single point]
Cn1cc(S(=O)(=O)NCCc2ccccc2)c(=O)n(C)c1=O | -23.9% | – | 16.4 µM [falling, single point]
CCn1c(CN2CCOCC2)nnc1SCC(=O)Nc1ccc(C)cc1 | 28.6% | – | 20.6 µM [rising, single point]
COc1ccc(NC(=O)CCN2C(=O)C3C4C=CC(C4)C3C2=O)cc1 (configuration not stated) | 107% | – | –
CN(C)CCCNS(=O)(=O)c1ccc(Oc2ncc(C(F)(F)F)cc2Cl)cc1 | -58.6% | 29.1 µM [falling, single point] | 29.1 µM [falling, single point]
COc1cc(/C=N\Nc2nncn2N)ccc1OC(C)=O | -5.8% | – | –

SMILES | cell number change | AC50 [1] | AC50 [2]
O=C1c2ccccc2S(=O)(=O)N1Cc1ccccc1[N+](=O)[O-] | 14.5% | – | 3.26 µM [rising, single point]
O=C(Cn1c(=S)[nH]c2ccccc2c1=O)N1CCc2ccccc2C1 | 20.4% | – | –
O=C(COC(=O)CCC(=O)c1ccc(Cl)cc1)NCCc1ccccc1 | -5.82% | 0.731 µM [falling, single point] | 0.651 µM [falling, single point]
COc1ccc(-c2cc(C(=O)NCc3ccc(Cl)cc3)no2)cc1OC | 15.9% | – | 25.9 µM [rising, single point]
O=C(CN1C(=O)C2CC=CCC2C1=O)Nc1ccc(S(=O)(=O)Nc2nccs2)cc1 (configuration not stated) | -17.3% | – | 32.6 µM [falling, single point]
Cc1cc(C)cc(NC(=S)N2CCC(NC(=O)C3CCCCC3)CC2)c1 | 38.3% | 1.16 µM [rising, partial curve] | –
COc1ccccc1CCC(=O)Nc1cccc(S(=O)(=O)N2CCCC2)c1 | 32.7% | 35.5 µM [rising, single point] | –
COc1cccc(/C=N/NC(=S)Nc2cccc(S(=O)(=O)N(C)C)c2)c1 | 16% | – | 18.4 µM [rising, single point]
CCN(CC(=O)N1CCN(Cc2ccccc2)CC1)S(=O)(=O)c1ccc(C)cc1 | – | – | 29.1 µM [rising, single point]
CC(C)Sc1nc2ncnc(N)c2[nH]1 | 8.68% | – | –
COc1ccc(NC(=O)C(NC(=O)OC(C)(C)C)C(C)OCc2ccccc2)cc1 (configuration not stated) | -24.4% | – | 20.6 µM [falling, single point]
CCOc1ccc(NC(=O)CCC(=O)N/N=C(\C)c2cccs2)cc1 | – | 1.03 µM [rising, full curve, poor fit] | 18.4 µM [rising, single point]
COc1ccc(C2c3[nH]c4ccccc4c3C[C@H]3C(=O)N(C4CCN(Cc5ccccc5)CC4)CC(=O)N23)c(OC)c1 (some centres not stated) | 23.6% | – | –
O=C(CCCCCN1C(=O)[C@@H]2Cc3ccccc3CN2C1=O)Nc1cccc(F)c1 | – | – | 18.4 µM [falling, single point]
Cc1cc(Br)ccc1NC(=O)CCS(=O)(=O)c1cccc2nonc12 | 21.9% | – | –
Cc1ccc(C)c(/C=N/NC(=S)NC(C)C)c1 | 0.167% | – | –
CC1CCN(C(=O)c2ccc(NS(C)(=O)=O)cc2)CC1 | 5.01% | 0.461 µM [rising, single point] | 0.58 µM [rising, partial curve, poor fit]
O=C(c1cccs1)N1CCN(Cc2cccnc2)CC1 | 2.03% | – | 20.6 µM [rising, single point]
CCC(=O)N1CCN(c2ccccc2NC(=O)c2cccc(C)c2)CC1 | – | – | 0.517 µM [rising, single point]
O=C1c2ccccc2C(=O)N1Cc1nc2ccccc2o1 | -18.8% | – | –

Reprinted from the entries so far for reference:
SMILES | cell number change | AC50 [1] | AC50 [2]
O=C(COC(=O)CCC(=O)c1ccc(Cl)cc1)NCCc1ccccc1 | -5.82% | 0.731 µM [falling, single point] | 0.651 µM [falling, single point]
COc1ccc(-c2cc(C(=O)NCc3ccc(Cl)cc3)no2)cc1OC | 15.9% | – | 25.9 µM [rising, single point]
